Data source: PubChem BioAssay AID1259254 (NCATS, 2017)
The deposit covers about 59,000 reagents; this is an unselected part. About 1,550 of them (2.6%) were called active. 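G2 share is only a proxy for re-replication; each gene was hit by three separate siRNAs, and active genes were retested.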 Unmarked entries are inactive. The numbers tell different reagents against one gene apart. Not all columns of the deposit are shown. Not stated in the record: the amount of reagent.

Assay: 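Genome-wide screen for genes that prevent DNA re-replication in cancer cells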 (primary screen)
Cells: human HCT116 colorectal cancer cells
Reagent: single siRNA against human genes
Timing: 3 days
Measured: 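Nuclei stained with Hoechst and imaged; cell-cycle phase assigned by DNA content; G2 share scaled per plate, non-targeting siRNA 0%, GMNN siRNA 100%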
Direction: G2 robust z-score and G2 cells, % of GMNN control: higher = more G2 cells, more excess DNA replication
Rule for the call: 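An siRNA counts as active if its G2 robust z-score lies at least 5 MADs above the screen median; here such calls match roughly 38% of GMNN control or more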

FCAMR (Fc alpha and mu receptor) #1 gave G2 robust z-score 1.05; G2 cells, % of GMNN control 10.4.
For FCAMR (Fc alpha and mu receptor) #2 the deposit lists G2 robust z-score 4.39; G2 cells, % of GMNN control 33.9.
FCAMR (Fc alpha and mu receptor) #3 gave G2 robust z-score -0.291; G2 cells, % of GMNN control 0.921.
With knock-down of DVL1 (dishevelled segment polarity protein 1) #1 the results were G2 robust z-score 0.000755; G2 cells, % of GMNN control 2.97.
After knock-down of DVL1 (dishevelled segment polarity protein 1) #2, the screen gave G2 robust z-score 0.907; G2 cells, % of GMNN control 9.35.
DVL1 (dishevelled segment polarity protein 1) #3 showed G2 robust z-score -0.938; G2 cells, % of GMNN control -3.63.
Against KLHL6 (kelch like family member 6) #1, the entry reads G2 robust z-score -0.268; G2 cells, % of GMNN control 1.08.
For KLHL6 (kelch like family member 6) #2, the entry reads G2 robust z-score -0.132; G2 cells, % of GMNN control 2.04.
For KLHL6 (kelch like family member 6) #3, the entry reads G2 robust z-score 0.106; G2 cells, % of GMNN control 3.71.
With knock-down of EFCAB7 (EF-hand calcium binding domain 7) #1, the screen gave G2 robust z-score 2.85; G2 cells, % of GMNN control 23.1.
Against EFCAB7 (EF-hand calcium binding domain 7) #2, the values are G2 robust z-score -0.732; G2 cells, % of GMNN control -2.18.
Depletion of EFCAB7 (EF-hand calcium binding domain 7) #3 gave: G2 robust z-score -0.832; G2 cells, % of GMNN control -2.89.
After knock-down of PIGF (phosphatidylinositol glycan anchor biosynthesis class F) #1 the results were G2 robust z-score 1.67; G2 cells, % of GMNN control 14.7.
For PIGF (phosphatidylinositol glycan anchor biosynthesis class F) #2, the values are G2 robust z-score 1.02; G2 cells, % of GMNN control 10.1.
After knock-down of PIGF (phosphatidylinositol glycan anchor biosynthesis class F) #3, the record shows G2 robust z-score 5.61 (active); G2 cells, % of GMNN control 42.4.
With knock-down of ZBTB3 (zinc finger and BTB domain containing 3) #1 the results were G2 robust z-score -0.667; G2 cells, % of GMNN control -1.73.
Knock-down of ZBTB3 (zinc finger and BTB domain containing 3) #2 gave: G2 robust z-score 0.207; G2 cells, % of GMNN control 4.42.
Depletion of ZBTB3 (zinc finger and BTB domain containing 3) #3 resulted in: G2 robust z-score 1.36; G2 cells, % of GMNN control 12.5.

2 of these entries, reformatted.
gene symbol | reagent no. | G2 robust z-score | G2 cells, % of GMNN control
EFCAB7 (EF-hand calcium binding domain 7) | 2 | -0.732 | -2.18
EFCAB7 (EF-hand calcium binding domain 7) | 3 | -0.832 | -2.89
